Source: PubChem BioAssay AID504749 (NCATS, 2011).

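Malaria parasite (P. falciparum) lines kept in red blood cells; parasite DNA is measured by SYBR Green fluorescence after lysis, 72 h after compound addition. Each compound was titrated across a series from about 0.000037 to 29 µM. The number is the fitted AC50, the concentration giving a half-maximal change in signal; a lower value means higher potency, whether the curve shows a decrease or an increase. Calls follow the curve class and fit quality: every row here is inconclusive, covering signal-raising curves and weak, poorly fitted, partial or highest-dose-only inhibition curves.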

Values are in µM. All entries here are filed as inconclusive. Only part of the assay is shown, chiefly results filed as inconclusive. A potency from a partial, single-point or poor curve is only a rough figure. Some entries filed as inconclusive have a full curve.

Compound | setting | potency (µM) | curve
COc1cc2nc(N3CCN(C(=O)[C@@H]4COc5ccccc5O4)CC3)nc(N)c2cc1OC | ICS | 11.22 | inhibitor, single point
COc1cc2nc(N3CCN(C(=O)[C@@H]4COc5ccccc5O4)CC3)nc(N)c2cc1OC | TAB113 | 17.78 | inhibitor, single point
COc1cc2nc(N3CCN(C(=O)[C@@H]4COc5ccccc5O4)CC3)nc(N)c2cc1OC | GB4 | 15.1 | inhibitor, partial curve
COc1cc2nc(N3CCN(C(=O)[C@@H]4COc5ccccc5O4)CC3)nc(N)c2cc1OC | TAB109 | 10 | inhibitor, single point
COc1cc2nc(N3CCN(C(=O)[C@@H]4COc5ccccc5O4)CC3)nc(N)c2cc1OC | PC26 | 15.1 | inhibitor, single point
COc1cc2nc(N3CCN(C(=O)[C@@H]4COc5ccccc5O4)CC3)nc(N)c2cc1OC | PAD | 10 | inhibitor, single point
COc1cc2nc(N3CCN(C(=O)[C@@H]4COc5ccccc5O4)CC3)nc(N)c2cc1OC | TAB165 | 17.78 | inhibitor, single point
COc1cc2nc(N3CCN(C(=O)[C@@H]4COc5ccccc5O4)CC3)nc(N)c2cc1OC | P94_40 | 17.78 | inhibitor, single point
COc1cc2nc(N3CCN(C(=O)[C@@H]4COc5ccccc5O4)CC3)nc(N)c2cc1OC | N140 | 17.78 | inhibitor, single point
COc1cc2nc(N3CCN(C(=O)[C@@H]4COc5ccccc5O4)CC3)nc(N)c2cc1OC | HB3 | 10 | inhibitor, single point
COc1cc2nc(N3CCN(C(=O)[C@@H]4COc5ccccc5O4)CC3)nc(N)c2cc1OC | P93_24 | 17.78 | inhibitor, single point
O=C(NC(CO)C(O)c1ccc([N+](=O)[O-])cc1)C(Cl)Cl (centres unmarked) | P94_40 | 4.467 | inhibitor, partial curve
O=C(NC(CO)C(O)c1ccc([N+](=O)[O-])cc1)C(Cl)Cl (centres unmarked) | CP191 | 10 | inhibitor, single point
O=C(NC(CO)C(O)c1ccc([N+](=O)[O-])cc1)C(Cl)Cl (centres unmarked) | 7G8 | 5.012 | inhibitor, partial curve
O=C(NC(CO)C(O)c1ccc([N+](=O)[O-])cc1)C(Cl)Cl (centres unmarked) | CP211 | 1.51 | inhibitor, partial curve
O=C(NC(CO)C(O)c1ccc([N+](=O)[O-])cc1)C(Cl)Cl (centres unmarked) | CP217 | 3.548 | inhibitor, full curve, poor fit
O=C(NC(CO)C(O)c1ccc([N+](=O)[O-])cc1)C(Cl)Cl (centres unmarked) | P93_24 | 11.22 | inhibitor, partial curve
O=C(NC(CO)C(O)c1ccc([N+](=O)[O-])cc1)C(Cl)Cl (centres unmarked) | ICS | 3.548 | inhibitor, full curve
O=C(NC(CO)C(O)c1ccc([N+](=O)[O-])cc1)C(Cl)Cl (centres unmarked) | CP297 | 4.776 | inhibitor, partial curve, poor fit
O=C(NC(CO)C(O)c1ccc([N+](=O)[O-])cc1)C(Cl)Cl (centres unmarked) | ATS189 | 10 | inhibitor, single point
O=C(NC(CO)C(O)c1ccc([N+](=O)[O-])cc1)C(Cl)Cl (centres unmarked) | DIV14 | 0.0478 | inhibitor, partial curve, poor fit
O=C(NC(CO)C(O)c1ccc([N+](=O)[O-])cc1)C(Cl)Cl (centres unmarked) | GB4 | 9.528 | inhibitor, partial curve, poor fit
O=C(NC(CO)C(O)c1ccc([N+](=O)[O-])cc1)C(Cl)Cl (centres unmarked) | C2A | 11.22 | inhibitor, single point
O=C(NC(CO)C(O)c1ccc([N+](=O)[O-])cc1)C(Cl)Cl (centres unmarked) | CP305 | 12 | inhibitor, partial curve
O=C(NC(CO)C(O)c1ccc([N+](=O)[O-])cc1)C(Cl)Cl (centres unmarked) | CP268 | 7.569 | inhibitor, partial curve
O=C(NC(CO)C(O)c1ccc([N+](=O)[O-])cc1)C(Cl)Cl (centres unmarked) | CP250 | 7.943 | inhibitor, single point
O=C(NC(CO)C(O)c1ccc([N+](=O)[O-])cc1)C(Cl)Cl (centres unmarked) | HB3 | 8.912 | inhibitor, single point
O=C(NC(CO)C(O)c1ccc([N+](=O)[O-])cc1)C(Cl)Cl (centres unmarked) | W2 | 4.256 | inhibitor, partial curve, poor fit